The values are deposited in ChEMBL (CHEMBL3988442, “University of Dundee, Small-Polar-MMV Screening Library” (2021)).

The filed quantity is “Percent Effect” (%).
How 0% and 100% were set is not recorded. Most values in the screen are low, and negative values occur.
The compounds are a random part of those screened.
Two or more numbers in one place are separate tests of the same structure; such repeats can differ widely.
A dash means the value is not listed here; it may have been measured.

T. brucei: 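Whole-parasite assay of Trypanosoma brucei over 72 hours; the read-out is not stated. Tested at 30 µM. Direction is inferred from retests: higher values go with stronger inhibition. Values scatter widely below zero; nearly all retest evidence comes from the higher of the two concentrations used. Of about 64,000 compounds tested this way, about 940 (1.5%) reached 50% or more in at least one test.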
Toxoplasma: 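Assay of Toxoplasma gondii numbers, read through their beta-galactosidase reporter with a colour substrate. Compounds at 10 µM. The record gives no direction; the compounds picked for IC50 retests had high values, so higher reads as fewer parasites. Of about 67,000 compounds tested this way, about 260 (0.38%) reached 50% or more in at least one test.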
Leishmania in macrophages: 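Cell assay of Leishmania donovani living inside macrophages; the read-out is not stated. Compounds at 30 µM. Higher reads as stronger inhibition (inferred: compounds with an IC50 in retests scored well above the rest). Size under these conditions: about 69,000 compounds, about 1,000 of them at 50% or above in at least one test.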

structure,T. brucei,Toxoplasma,Leishmania in macrophages
CCCN(CC)c1cc(C2CCNCC2)nc(C)n1,-18.68,19.49,20.57
CC(C)Oc1cccc(C(=O)C2CCCN(C(=O)c3ncn[nH]3)C2)c1 (centres undefined),6.494,0.577,48.14
O=C(O)C(F)(F)F.O=C(O)C(F)(F)F.O=C(O)C(F)(F)F.[H][C@@]12CCCO[C@]1([H])[C@H](N(C)Cc1ccco1)CN(Cc1ccncc1)C2,17.15,-1.13,34.74
COc1c(C2CCCN2Cc2csc(C(C)C)n2)c(C)nn1C (centres undefined),-29.44,0.5294,3.643
CCn1cc2c(n1)C(COCC1CC1)CN(C(=O)c1ccsc1)C2 (centres undefined),-50.81,-3.614,0.3912
Cc1nc(CN2CCCC(Cn3cncn3)C2)nc2ccccc12 (centres undefined),-,-5.136,15.7
CN(C)c1nccc(C2CCN(c3ncccn3)CC2)n1,4.199,-19.02,10.29
Cn1c(=O)c2cc(C(=O)NCCOc3ccccc3)ccc2n(C)c1=O,-21.28,21.74,14.33
CCC(CO)NC(=O)c1ccc2ccc(N(C)CC3CC3)n2c1 (centres undefined),2.096,-5.597,-8.108
[H][C@]12CN(C(=O)c3cc(C)on3)CC[C@@]1(O)CCN(C(=O)N1CCCC1)C2,-48.34,-22.29,-6.93
CC(C)n1cnnc1Cn1c(=O)cnc2ccccc21,7.541,3.055,39.31
COCC1CN(CC2CC2)Cc2nn(CC3CC3)cc21.O=C(O)C(F)(F)F (centres undefined),-26.67,-5.706,8.658
Cc1cc(NC(=O)N(C)C2CCCN(c3ccccc3)C2=O)n(C)n1 (centres undefined),-20.23,5.128,2.455
CC1(c2ccccc2)CCCN(Cc2cncn2C2CCCC2)C1 (centres undefined),102.5,64.76,95.34
O=C(O)C(F)(F)F.c1cnc(N2CCC3(CCN(CC4CCOC4)C3)CC2)nc1 (centres undefined),-2.616,-26.4,35.57
[H][C@@]12C[C@H](NC(=O)C3CC3)CN1[C@H](CCC(=O)N(CC)CC)CNC2=O,-12.45,-2.291,-53.24
COc1ccc(Br)cc1Cn1nc(C(N)=O)ccc1=O,4.746,-7.949,-4.911
CCN1CCN(C(=O)NCCOc2ccc3c(c2)OCO3)CC1,2.14,5.117,16.45
Cc1nc(N(C)C)cc(C2(C)CCNCC2)n1,-,-,6.393
COc1ncccc1C(=O)N1CCCC(n2ccnc2)C1 (centres undefined),-,6.143,12.88
COc1cc(C)c(C)cc1S(=O)(=O)N(C)CC(=O)Nc1ccon1,-50.96,17.1,11.07
O=C(O)C(F)(F)F.[H][C@@]12OCCN(Cc3ccc(F)cc3)[C@@]1([H])CC[C@H]2OC,-10.92,18.56,9.964
CCOC(C(=O)N1CCn2c(C)nnc2C1)c1ccccc1 (centres undefined),-24.53,3.499,14.44
CCC(=O)NC1CCN(c2cccc(CC)c2)CC1,0.08167,-1.069,-20.59
CC(C(=O)N1CCCN(c2ccccc2C#N)CC1)n1cccn1 (centres undefined),-12.08,11.29,0.7579
CN(C)C(=O)N1CCN(c2cc(N3CCCC3CO)ncn2)CC1 (centres undefined),-18.08,3.442,10.82
Cc1[nH]nc(CCC(=O)NCC2COc3ccccc3C2)c1C (centres undefined),20.79,-3.64,16.74
CC(C)C(C)(C#N)NC(=O)CN1CCC(c2ccnn2CCO)CC1 (centres undefined),-,-3.446,8.121
O=C(Nc1cccc(N2CCCC2)c1)C1CCCN1c1nccs1 (centres undefined),-16.5,8.496,43.11
[H][C@@]12CN(Cc3csc(C)n3)C[C@]1([H])CN(C(=O)c1ccoc1C)C2,0.4423,-31.09,9.313
CS(=O)(=O)c1ccc(CN2CCCCC2c2ccc(F)cc2)cc1 (centres undefined),-36.45,-4.831,2.139
CC(CNC(=O)Nc1cn[nH]c1)N1CCc2ccccc2C1 (centres undefined),5.238,6.793,4.029
CCn1nc(C)c2nnn(CC(=O)Nc3ccccc3)c(=O)c21,-5.47,1.414,-1.359
CC(=O)N1CCC2(CC1)CN(C(=O)c1ccc3c(c1)OCCO3)C2,-2.564,-2.817,11.7
O=C(O)C(F)(F)F.O=C(O)C(F)(F)F.c1ccc(CN2CCc3ncnc(C4CCOC4)c3CC2)nc1 (centres undefined),-12.39,7.02,11.32
Cc1ccc2[nH]c(CN(C)Cc3n[nH]c4c3CCC4)nc2c1,-11.6,4.869,65.71
COc1c(C(=O)NCc2cccnc2)nnn1Cc1ccccc1,-32.51,61.62,-12.53
Cc1ccccc1N1CC2(CCN(S(=O)(=O)c3cccs3)C2)CC1=O (centres undefined),-12.34,6.336,3.112
COCC1c2nnn(CC3CC3)c2CCN1C(=O)c1cnccn1 (centres undefined),-102.4,5.94,23.75
O=C(O)C(F)(F)F.[H][C@@]12CN(c3ccc(C)nn3)C[C@]1([H])OCCN2CC1CC1,-37.07,5.239,5.138
CC1(C)CC(=O)c2cnc3nc(N4CCOCC4)nc(O)c3c2C1,2.245,2.276,1.532
CN1CCC(c2cccc(-c3ccc(C(=O)O)cc3)n2)CC1,-,5.62,24.47
CC(C)OCCN1CCC(Nc2ccc(C#N)cc2F)CC1,-13.31,-9.722,-7.828
O=C(O)C(F)(F)F.O=C(O)C(F)(F)F.[H][C@@]12C[C@@H](C(=O)NC)N(C)[C@]1([H])CN(Cc1nccs1)C2,-4.835,5.702,9.102
CCc1ncnc(N(C)CC2CCCCO2)c1F (centres undefined),-43.02,5.247,-53.91
CCC1c2ccccc2CCN1C(=O)c1ccnc(C(=O)OC)c1 (centres undefined),-11.73,0.3978,25.69
NCCCC(=O)NCC1(O)CCN(c2ccnc3cccnc23)C1 (centres undefined),6.205,-2.147,17.29
CS(=O)(=O)N1CCC2(CC1)COC(COc1cccnc1)C2.O=C(O)C(F)(F)F (centres undefined),-6.101,1.876,9.531
Cc1ccc(C(=O)N2CCc3ncnc(C)c3CC2)o1,-56.67,-3.247,-21.01
CC(C)Sc1ncccc1C(=O)NCc1cccc(N(C)C)c1,11.96,-16.39,18.63
CCN1CCc2[nH]cnc2C12CCN(Cc1ccc3nsnc3c1)CC2,8.013,4.307,6.772
O=C(Nc1ccccc1)C1=CC2(CCNCC2)c2ccccc21,93.57,4.752,52.55
CCN1CCN(c2ccc(F)cc2C(C)NCc2ccncc2)CC1 (centres undefined),39.5,-1.648,11.79
CCc1nnc(CN2CCN(C(=O)c3ccccn3)CC2)o1,-15.71,-8.447,-2.222
O=S(=O)(c1cncc(F)c1)N1CCSC2(CCCCC2)C1,-,-5.628,3.709
CCn1nccc1CNc1nc(N)nc2c1nc(C)n2C,-,8.977,-16.04
CCOc1cc(C)nc(N2CCN(C(C)c3nc(C)no3)CC2)n1 (centres undefined),-23.33,2.169,4.511
NC(=O)CC1c2cccnc2C(=O)N1Cc1ccccc1 (centres undefined),20.18,16.96,10.62
Cc1cccc(OCCNC(=O)CN2CCCC2Cn2cncn2)c1 (centres undefined),-10.63,-12.66,20.99
COc1ccc(-c2c[nH]c(C3CC(=O)N(CC(C)C)C3)n2)cc1 (centres undefined),-6.621,0.2959,20.12
O=C(Nc1cc(F)ccc1OCC1CCCO1)N1CCCC1 (centres undefined),17.31,-1.271,37.5
CC(C)CN1CCC2(CCN(Cc3nccs3)CC2)C1=O.O=C(O)C(F)(F)F,-11.88,-0.2463,12.73
Cc1ccnc(C(NC(=O)c2sc(C)nc2C)C2CC2)n1 (centres undefined),-19.41,-11.41,9.909
O=C(CN1C(=O)CCC1=O)N1CCOC2(CCOCC2)C1,-22.64,-17.63,-27.82
Cc1cc(-c2ccnn2C)nc(C2CCN(S(C)(=O)=O)CC2)n1,-9.161,4.377,-4.584
CN1CCC2(CCN(S(=O)(=O)c3ccc(-c4cnco4)s3)CC2)C1,-33.73,-11.07,15.19
O=C(Cn1cc(C(=O)O)ccc1=O)Nc1ccc(Cl)cc1F,11.94,-4.662,1.129
Cc1ccc(C2CN(Cc3cnc(-c4ccccn4)s3)CCO2)o1 (centres undefined),-51.13,-6.676,11.18
[H][C@]12CCN(C(=O)NC)CC[C@@]1([H])S(=O)(=O)N(CCc1cccc(OC)c1)C2,-34.24,26.39,12.27 & 16.94
CC(C)[C@H]1CN(Cc2ccccn2)C[C@@H]1NC(=O)CCS(C)(=O)=O,-35.8,9.698,18.74

For reference, 6 entries once more:

CS(=O)(=O)c1ccc(CN2CCCCC2c2ccc(F)cc2)cc1 (centres undefined) gave T. brucei: -36.45%; Toxoplasma: -4.831%; Leishmania in macrophages: 2.139%.
Cc1[nH]nc(CCC(=O)NCC2COc3ccccc3C2)c1C (centres undefined) gave T. brucei: 20.79%; Toxoplasma: -3.64%; Leishmania in macrophages: 16.74%.
CCOC(C(=O)N1CCn2c(C)nnc2C1)c1ccccc1 (centres undefined) gave T. brucei: -24.53%; Toxoplasma: 3.499%; Leishmania in macrophages: 14.44%.
CC1(C)CC(=O)c2cnc3nc(N4CCOCC4)nc(O)c3c2C1 gave T. brucei: 2.245%; Toxoplasma: 2.276%; Leishmania in macrophages: 1.532%.
Cc1cccc(OCCNC(=O)CN2CCCC2Cn2cncn2)c1 (centres undefined) gave T. brucei: -10.63%; Toxoplasma: -12.66%; Leishmania in macrophages: 20.99%.
CC(C)OCCN1CCC(Nc2ccc(C#N)cc2F)CC1 gave T. brucei: -13.31%; Toxoplasma: -9.722%; Leishmania in macrophages: -7.828%.